Measured values published in patent US8383887B2, “Methods of using plants containing the gdhA gene” (Southern Illinois University Carbondale, priority 2009, dated 2013).
“And” between values parts separate entries of the source, which are not always exact repeats. Identical values can stand only once.

Test system: gdhA+ Nicotiana tabacum plants
Test: Metabolites with altered abundance in leaf and root extracts of gdhA+ vs gdhA− Nicotiana tabacum
Conditions: for Percent Change in abundance in gdhA+ plants compared to gdhA− plants: Nicotiana tabacum
[1] = root extracts, % changes are ±2%
[2] = leaf extracts, % changes are ±2%
[3] = leaf extracts, metabolite abundance, gdhA+ vs gdhA− Nicotiana tabacum
[4] = fatty acids (Table 6Ii), tissue not given
[5] = root extracts, gdhA+ plants compared to gdhA− plants, % changes are ±2%
[6] = root extracts, metabolite abundance, gdhA+ vs gdhA− Nicotiana tabacum

Compound	Percent Change in abundance in gdhA+ plants compared to gdhA− plants [1]	Percent Change [5]	further results
CCCCC[C@@H](/C=C/C=C\CCCCCCCC(=O)O)OO [(9Z,11E)-(13S)-13-Hydroperoxyoctadeca-9,11-dienoate]	194%	–	–
Cc1ccccc1C=CC(=O)O [2-methyl cinnamic acid]	59%	–	–
CN1CCC[C@H]1c1ccc(O)nc1 [(S)-6-Hydroxynicotine]	263%	–	–
c1cnc2c(c1)CCC2 [2,3-cyclopentenopyridine]	–	–	Percent Change in abundance in gdhA+ plants compared to gdhA− plants [2]: 176% and 278%; Percent Change [3]: 278%
CCCCCCCCCCCCCCCCCC(=O)O [Stearic acid]	–	–	Percent Change [4]: 11%
N[C@@H](C=O)[C@@H](O)[C@H](O)[C@H](O)CO [2-amino-2-deoxy-D-glucose]	276%	–	–
O=C1C(=O)C2C=CC1O2 [7-Oxabicyclo[2.2.1]hept-5-ene-2,3-dione]	41%	–	–
C=CCC1(CCCC)C(=O)NC(=O)NC1=O [5-allyl-5-butylbarbituric acid]	22%	22%	–
CC(=O)c1ccccc1 [Acetophenone]	54%	–	Percent Change in abundance in gdhA+ plants compared to gdhA− plants [2]: 238%
O=C1OC(=O)c2ccccc21 [Phthalic anhydride]	24%	24%	–
CCCCCCCCCCCC(=O)O [Lauric acid]	21% and 14%	–	Percent Change [4]: 14%
CC(C)(CO)[C@@H](O)C(=O)NCCCC(=O)O [Hopantenic acid]	–	–	Percent Change in abundance in gdhA+ plants compared to gdhA− plants [2]: 34%; Percent Change (leaf extracts, gdhA+ plants compared to gdhA− plants, % changes are ±2%): 34%
CCCCCCC(=O)CCCCCCCCCCC(=O)OC [Octadecanoic acid, 12-oxo-, methyl ester]	14%	–	–
CCCCCC/C=C\CCCCCCCC(=O)O [Palmitoleic Acid]	29%	–	Percent Change [4]: 29%; Percent Change in abundance in gdhA+ plants compared to gdhA− plants [2]: 12%
CCCCCCCCCCCCCCCCCCCCCCCC(=O)O [Lignoceric acid]	13% and 5%	–	Percent Change [4]: 5%; Percent Change in abundance in gdhA+ plants compared to gdhA− plants [2]: 15%
CCCCCCCC=CC(=O)O [2-Decenoic Acid]	56%	56%	–
Cc1ccc2[nH]cc(CC(N)C(=O)O)c2c1 (racemic) [5-Methyl-DL-tryptophan]	–	–	Percent Change in abundance in gdhA+ plants compared to gdhA− plants [2]: 40%; Percent Change [3]: 40%
COCC(O)CO (stereo not shown) [3-Methoxy-1,2-propanediol]	40%	40%	–
O[C@H]1[C@H]2[C@H](O)CCCN2C[C@H]1O [Swainsonine]	500%	–	–

Compound	Percent Change in abundance in gdhA+ plants compared to gdhA− plants [1]	Percent Change [5]	further results
O=C(O)CCCCCCCCC(=O)O [Sebacic Acid]	16%	16%	–
CCCCCCCCCCCCCCC1(C(=O)O)CO1 (stereo not shown) [Palmoxiric acid]	35%	35%	–
CCCCCCCCCCCCCCCCCCC(=O)O [n-Nonadecanoic Acid]	–	–	Percent Change [4]: 10%
CC1(C)CCCC(C)(C)N1N=O [2,2,6,6-tetramethyl-N-nitrosopiperidine]	29%	29%	–
Bis-D-fructose 2′,1:2,1′-dianhydride	1250%	–	Percent Change in abundance in gdhA+ plants compared to gdhA− plants [2]: 208%
COc1cc(NS(=O)(=O)c2ccc(N)cc2)ncn1 [4-amino-N-(6-methoxy-4-pyrimidyl)-benzenesulfonamide]	20%	20%	–
O[C@@H]1[C@@H](O)[C@@H]2OC[C@@H](O2)[C@H]1O [1,6-Anhydro-beta-D-glucopyranose]	263%	–	–
CCCCCCC(=O)/C=C/CCCCCCCCC(=O)OC [Methyl 12-oxo-trans-10-octadecenoate]	25%	–	–
CCCCCCCCCCCCC(C(=O)O)C(=O)O [Dodecylmalonic acid]	46%	46%	–
NC(=O)CC[C@H](N)C(=O)O [Glutamine]	–	–	Percent Change [3]: 357%; Percent Change [6]: 357%
Cc1ccccc1NC(=N)Nc1ccccc1C [1,3-Di-o-tolylguanidine]	400%	400%	–
CCCCCCCCCCCCCCCCC(=O)O [n-Heptadecanoic Acid]	19%	–	Percent Change [4]: 19%
CCCCCCCCCCCCCCCC(N)=O [Hexadecanamide]	–	12%	–
O=C(O)CC(O)C(=O)O (racemic) [DL-malic acid]	270%	–	–
2,2′-ethyledene bis(4,6-di-t-butyl	12%	12%	–
CC(C)c1cccc(C(C)C)c1N=C1NCCN1 [N-[2,6-bis(isopropyl)phenyl]-2-imidazolidineimine]	345%	–	–
CCCCCCC1CC(=O)O1 (stereo not shown) [Gamma-Nonanolactone]	43%	43%	–
O=C1C=c2cc[nH]c2=CC1=O [Indole-5,6-quinone]	40%	–	–
CC(=O)N1CCC(C(=O)O)CC1 [1-Acetyl-4-piperidinecarboxylic acid]	270%	270%	–

Compound	Percent Change in abundance in gdhA+ plants compared to gdhA− plants [1]	Percent Change [5]	further results
CCCCCCCCCCCCN1CCCC1=O [1-Lauryl-2-pyrrolidone]	–	29%	–
CCCCCCCCCCCCCCCCCCCCCCC(=O)OCC [Ethyl tricosanoate]	7%	–	Percent Change in abundance in gdhA+ plants compared to gdhA− plants [2]: 24%
COc1nccnc1C [2-methoxy-3-methyl-pyrazine]	51%	51%	–
CCCCCCCCCC(N)=O [Decanamide]	435%	435%	–
O=C(O)[C@@H]1CCCN1 [Proline]	–	–	Percent Change [6]: 256%
CCC/C=C\C(N)=O [cis-2-hexenoic acid amide]	26%	26%	–
O=C(CO)c1ccccc1 [alpha-Hydroxyacetophenone]	49%	–	–
NCCCC[C@H](NC(CCc1ccccc1)C(=O)O)C(=O)N1CCC[C@H]1C(=O)O (stereo partly drawn) [1-[N-(1-carboxy-3-phenylpropyl)-L-lysyl]-L-proline]	278% and 244% and 400%	–	Percent Change [6]: 278% and 244% and 400%
NCCCCNC(=O)/C=C/c1ccc(O)c(O)c1 [N-caffeoylputrescine]	19% and 26% and 25%	–	Percent Change in abundance in gdhA+ plants compared to gdhA− plants [2]: 196%
CN(C)C(=O)NC1CCCCCCC1 [Cyclooctyl-1,1-dimethylurea]	24%	24%	–
O=C1C2CCCN2C(=S)N1c1ccccc1 (stereo not shown) [PTH-proline]	43%	–	Percent Change [6]: 43%
O=C1CCCCCCCCCCCCCCC1 [Cyclohexadecanone]	18%	18%	–
COc1ccc2[nH]cc(CCN(C)C)c2c1 [N,N-dimethyl-5-methoxytryptamine]	–	–	Percent Change in abundance in gdhA+ plants compared to gdhA− plants [2]: 294%
CCCCCCCC(=O)CCCCCC(=O)OC [Tetradecanoic acid, 7-oxo-, methyl ester]	43%	–	–
CCCCCCCCCCCCCCC(=O)O [Pentadecanoic Acid]	6%	–	Percent Change [4]: 6%; Percent Change in abundance in gdhA+ plants compared to gdhA− plants [2]: 23%
CCCCC(CCCC)(C(=O)OCC)C(=O)OCC [Propanedioic acid, dibutyl-, diethyl ester]	70%	–	–
CC(C)(C)[C@@H]1CCC[C@H](C(C)(C)C)C1=O [cis-2,6-Di-tert-butylcyclohexanone]	35%	35%	–
C=CCOC(=O)CCCCCCCC1OC1CCCCCCCC (stereo not shown) [Octadecanoic acid, 9,10-epoxy-, allyl ester]	10%	–	–
CCCCCCOc1cc(C)c(O)c(C)c1C [1-O-Hexyl-2,3,5-trimethylhydroquinone]	179%	–	–
